According to PubChem BioAssay AID2073 (Sanford-Burnham Center for Chemical Genomics, 2009):
Hit rate of the full screen: of about 290,000 compounds, about 570 (0.2%) were called active. This list was built around the results that the source calls inconclusive (neither active nor inactive); the mix of calls is not that of the screen. No stated cut-off is given here; in the data, active means inhibition mostly above about 51% (no sharp cut-off); inconclusive means no clear call, values can overlap the other calls; inactive means mostly below about 53%.

Amino acid sequences for entries named in this document (tags omitted).
UniProt Q00975, whole entry, looked up: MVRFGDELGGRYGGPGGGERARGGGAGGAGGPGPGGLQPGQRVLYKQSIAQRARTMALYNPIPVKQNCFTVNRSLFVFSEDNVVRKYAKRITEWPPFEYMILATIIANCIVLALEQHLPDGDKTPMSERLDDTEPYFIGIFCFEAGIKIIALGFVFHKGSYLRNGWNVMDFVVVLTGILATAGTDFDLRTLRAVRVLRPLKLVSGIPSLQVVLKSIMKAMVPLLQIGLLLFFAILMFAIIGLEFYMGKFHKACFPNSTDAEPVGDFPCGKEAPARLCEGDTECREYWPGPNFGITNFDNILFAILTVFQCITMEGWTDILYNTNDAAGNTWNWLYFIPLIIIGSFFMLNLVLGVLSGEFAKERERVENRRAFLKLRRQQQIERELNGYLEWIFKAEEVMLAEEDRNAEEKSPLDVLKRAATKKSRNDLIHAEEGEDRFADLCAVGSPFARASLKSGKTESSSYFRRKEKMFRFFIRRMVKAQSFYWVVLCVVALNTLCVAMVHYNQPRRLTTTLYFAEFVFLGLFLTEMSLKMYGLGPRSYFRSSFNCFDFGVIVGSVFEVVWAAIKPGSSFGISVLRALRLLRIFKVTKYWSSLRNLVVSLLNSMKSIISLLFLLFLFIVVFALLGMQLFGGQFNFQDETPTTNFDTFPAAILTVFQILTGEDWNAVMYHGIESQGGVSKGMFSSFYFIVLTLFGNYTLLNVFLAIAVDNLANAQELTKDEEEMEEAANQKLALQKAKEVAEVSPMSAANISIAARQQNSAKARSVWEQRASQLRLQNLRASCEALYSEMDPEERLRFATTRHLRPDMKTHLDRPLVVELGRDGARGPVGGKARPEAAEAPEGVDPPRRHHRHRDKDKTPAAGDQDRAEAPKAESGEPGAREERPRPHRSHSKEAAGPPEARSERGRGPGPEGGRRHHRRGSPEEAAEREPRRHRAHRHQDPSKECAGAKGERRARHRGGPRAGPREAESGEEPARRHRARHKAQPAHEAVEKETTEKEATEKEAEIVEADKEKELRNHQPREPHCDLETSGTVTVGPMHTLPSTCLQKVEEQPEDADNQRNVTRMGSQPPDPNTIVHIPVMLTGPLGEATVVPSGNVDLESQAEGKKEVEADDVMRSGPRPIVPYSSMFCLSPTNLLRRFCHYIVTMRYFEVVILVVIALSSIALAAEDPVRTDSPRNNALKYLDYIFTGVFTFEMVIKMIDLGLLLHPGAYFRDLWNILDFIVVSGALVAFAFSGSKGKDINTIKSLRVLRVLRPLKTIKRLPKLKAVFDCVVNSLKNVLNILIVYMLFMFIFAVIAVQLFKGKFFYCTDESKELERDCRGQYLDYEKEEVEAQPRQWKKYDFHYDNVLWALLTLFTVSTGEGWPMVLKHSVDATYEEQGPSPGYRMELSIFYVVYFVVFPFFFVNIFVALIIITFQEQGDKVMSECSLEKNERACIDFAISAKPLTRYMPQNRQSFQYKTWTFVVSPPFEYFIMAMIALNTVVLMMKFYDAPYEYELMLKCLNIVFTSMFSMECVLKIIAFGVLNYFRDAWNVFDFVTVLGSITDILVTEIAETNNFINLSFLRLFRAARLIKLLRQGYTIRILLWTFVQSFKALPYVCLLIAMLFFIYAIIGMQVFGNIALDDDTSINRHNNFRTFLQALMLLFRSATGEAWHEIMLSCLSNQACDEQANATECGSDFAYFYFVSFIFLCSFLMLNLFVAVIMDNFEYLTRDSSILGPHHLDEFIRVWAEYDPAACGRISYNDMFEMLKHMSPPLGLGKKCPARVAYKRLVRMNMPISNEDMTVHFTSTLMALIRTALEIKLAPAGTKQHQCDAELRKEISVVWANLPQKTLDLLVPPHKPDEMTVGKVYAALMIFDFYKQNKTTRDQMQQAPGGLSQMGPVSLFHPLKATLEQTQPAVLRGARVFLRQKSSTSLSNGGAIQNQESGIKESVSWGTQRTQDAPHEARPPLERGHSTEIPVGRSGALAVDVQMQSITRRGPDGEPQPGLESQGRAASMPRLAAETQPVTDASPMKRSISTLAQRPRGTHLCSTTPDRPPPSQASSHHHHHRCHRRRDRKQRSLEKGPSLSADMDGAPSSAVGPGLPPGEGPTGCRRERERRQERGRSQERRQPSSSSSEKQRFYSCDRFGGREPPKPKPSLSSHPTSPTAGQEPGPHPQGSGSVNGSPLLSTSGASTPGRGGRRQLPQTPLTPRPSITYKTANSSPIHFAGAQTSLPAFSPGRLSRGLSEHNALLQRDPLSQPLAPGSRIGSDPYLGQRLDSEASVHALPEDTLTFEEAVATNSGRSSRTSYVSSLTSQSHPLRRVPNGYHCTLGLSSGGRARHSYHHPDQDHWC

Biological target: Voltage-dependent N-type calcium channel subunit alpha-1B (Homo sapiens) (UniProt Q00975)
Assay: disruptors of CaV2.2 binding to Mint1 – biochemical, HTRF (AID 2073)
Conditions: HTRF protein-protein interaction, Mint1-CaV2.2; at 20 µM; hits give high values

Compound | inhibition
CCCOC(=O)/C(=C\C=C\c1ccco1)NC(=O)c1ccccc1 | active: 66.6%
O=C(Cc1n[nH]c(=O)c2ccccc12)NC(c1ccccc1)c1ccccc1 | inactive: 1.8%
Cc1nn(CC(=O)NCC2CCCO2)c(=O)c2cc3ccccc3n12 (stereo unspecified) | inconclusive: 87.2%
Cc1c(CCC(=O)NC2CC2)c(=O)oc2c(C)c(O)ccc12 | inconclusive: 86.3%
Cn1c(N)c(C(=O)COC(=O)c2cc(-c3ccco3)nc3ccccc23)c(=O)n(C)c1=O | inactive: 50.3%
c1coc(C2=Nc3cccc4cccc(c34)N2)c1 | active: 54.2%
Cc1ccc(OCC(=O)N/N=C/C=C/c2ccco2)cc1C | active: 55.3%
COc1ccc(CN(C(=O)c2cc(=O)c3cc(C)cc(C)c3o2)C2CCS(=O)(=O)C2)cc1 (stereo unspecified) | inactive: 0%
COCc1[nH][nH]c(=O)c1/C=N/N1CCOCC1 | inconclusive: 56.3%
COc1ccc(-n2c(C)c(C(C)=O)c3cc(O)ccc32)cc1 | inconclusive: 60%
Nc1nnnn1/N=C/c1cc(Cl)ccc1O | inconclusive: 51.5%
CCC(C)(C)n1nnnc1C(c1cc2ccc(OC)cc2[nH]c1=O)N1CCc2ccccc21 (stereo unspecified) | inactive: 19.3%
O=c1cc(Cl)c(-c2ccccc2)nn1Cc1ccc(Cl)cc1 | inconclusive: 94.5%
S=c1nc[nH]c2c1[nH]c1ccccc12 | inconclusive: 67.3%
CCN1C(=O)/C(=C/C=C2/Sc3ccccc3N2CCO)SC1=S | inactive: 38.4%
Cc1cc2nc(-c3ccc[nH]c3=O)[nH]c2cc1C | inconclusive: 61%
O=c1[nH]c2ccccc2c2nc3ccccn3c12 | inactive: 23.2%
Nc1ccc2nc3c(=O)n(CCc4ccccc4)c(=O)[nH]c3nc2c1 | inconclusive: 73.2%
Oc1ccc(Br)cc1C=Nc1ccc2c3c(cccc13)CC2 | active: 53.5%
CN(C)c1cccc(C(=O)OCC(=O)NC2CCCC2)c1 | inactive: 2.1%
CC(=O)NCCC(=O)Nc1cccc(S(=O)(=O)N(C)c2ccccc2)c1 | inconclusive: 50.9%
O=C1CCCC2=C1C(c1ccncc1)n1c(nc3ccccc31)N2 (stereo unspecified) | inconclusive: 65.9%
CCOc1ccc2c(c1)C(C)=CC(C)(C)N2S(=O)(=O)c1ccc(C)cc1 | inconclusive: 51.8%

Random excerpt: two records from the list.
Compound | inhibition
S=c1nc[nH]c2c1[nH]c1ccccc12 | inconclusive: 67.3%
O=C(Cc1n[nH]c(=O)c2ccccc12)NC(c1ccccc1)c1ccccc1 | inactive: 1.8%

The list goes on.

Compound | inhibition
CC(=O)C1(C)OC(N)=C(C#N)C(c2ccccc2)C1(C#N)C#N (stereo unspecified) | inactive: 48%
COc1ccc(C2SCCN2C(=S)Nc2ccc(F)cc2)cc1 (stereo unspecified) | inconclusive: 51%
COc1ccccc1CNC(=O)c1ccc2nc3[nH]c4ccccc4c3nc2c1 | inconclusive: 82.9%
CCc1c(C)nc2ncnn2c1N1CCC(C(=O)Nc2ccc(C)cc2)CC1 | inconclusive: 51.8%
Cc1ccnc(N=Cc2nc(-c3ccccc3Br)oc2O)c1 | inconclusive: 53.6%
COc1cccc(-c2nn(-c3ccccc3)cc2C(=O)O)c1 | inactive: 1.6%
Cc1cc(C(=O)Nc2ccc(N3CCOCC3)c(Cl)c2)c(C)o1 | inconclusive: 55.2%
Cc1ccc(N2C(=O)C3C4C=CC(CNC(=S)N5CCN(c6ccccc6)CC5)(O4)C3C2=O)cc1 (stereo unspecified) | inactive: 45.6%
CCCCCCCCNc1nc(Cl)nc(NCCN2CCOCC2)n1 | inconclusive: 66.1%
CNS(=O)(=O)c1ccc2c3c(cccc13)C(=O)N2 | inconclusive: 60.7%
Cc1ncc(CO)c(/C=N/NC(=S)Nc2cccc(Cl)c2)c1O | active: 53.7%
CC(=O)c1ccc(-c2ccccc2OC(F)(F)F)o1 | inconclusive: 92.2%
N/C(Cc1ccc(Cl)c(Cl)c1)=N\OC(=O)c1ccc(Br)o1 | inactive: 5.1%
CCOc1ccc(S(=O)(=O)NC(Cc2c[nH]c3ccccc23)C(=O)O)cc1 (stereo unspecified) | inconclusive: 60.7%
O=C(N/N=C/c1ccc([N+](=O)[O-])o1)c1cc(-c2ccc(-c3ccccc3)cc2)nc2ccccc12 | active: 59.1%
CC(=O)N1CCN(C(=O)c2ccc3c(c2)OCCO3)CC1 | inactive: 16.6%
O=C(O)c1ccc(N2N=C(c3ccccc3)CC2c2ccccc2)cc1 (stereo unspecified) | inconclusive: 63.7%
COc1ccc(Cl)cc1-c1csc(N)n1 | inconclusive: 97.7%
COc1ccc(S(=O)(=O)Nc2ccccc2Cl)cc1NC(C)=O | inactive: 1.4%
COC(=O)c1ccccc1N1C(=O)C2C(C1=O)[C@H]1C=C[C@@H]2C1 (stereo partly specified) | inconclusive: 53.4%
CCOc1ccc(N(CC(=O)NCCSCc2ccc(C)cc2)S(C)(=O)=O)cc1 | inconclusive: 50.4%
Cn1c(N)c(C(=O)COC(=O)c2cc(-c3ccccc3)nc3ccccc23)c(=O)n(Cc2ccccc2)c1=O | inactive: 21.7%
FC(F)(F)c1cnc(C(c2ccccn2)c2ncn[nH]2)c(Cl)c1 (stereo unspecified) | inconclusive: 66.6%
